Measured values published in article PMC10492782, “Exploiting the aggregation propensity of beta-lactamases to design inhibitors that induce enzyme misfolding” (Nature Communications, 2023).
Results are given in words; binding and its absence hold for the method and conditions named.

Amino acid sequences for entries named in this document (tags omitted). Residues count along the entry.
UniProt P62593, residues 24-286: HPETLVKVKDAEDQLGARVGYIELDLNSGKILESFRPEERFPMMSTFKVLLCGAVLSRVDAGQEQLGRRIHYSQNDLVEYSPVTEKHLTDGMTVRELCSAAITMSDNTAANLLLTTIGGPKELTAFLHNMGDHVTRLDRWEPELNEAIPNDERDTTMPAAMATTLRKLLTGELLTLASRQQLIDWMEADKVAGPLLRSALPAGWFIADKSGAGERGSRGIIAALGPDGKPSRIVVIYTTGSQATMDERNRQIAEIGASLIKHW

Biological target: TEM-1 beta-lactamase (E. coli) (UniProt P62593)
Assay: SEC-MALS; S75 column (GE Healthcare) coupled to multiple angle light scattering (Wyatt); purified recombinant protein without the GFP tag; both purified

In the case of “TEM-1 beta-lactamase (from UniProt P62593 24-286) (enzyme)”, the binding is reported as “no binding”.
